The supplement of paper PMC7666118
This is one part of the list.

Chains of the proteins cited; added tags and fusions are not shown. Lines headed by an entry give the natural chain unless they say otherwise; changes in a name come on top.
UniProt Q5ST30: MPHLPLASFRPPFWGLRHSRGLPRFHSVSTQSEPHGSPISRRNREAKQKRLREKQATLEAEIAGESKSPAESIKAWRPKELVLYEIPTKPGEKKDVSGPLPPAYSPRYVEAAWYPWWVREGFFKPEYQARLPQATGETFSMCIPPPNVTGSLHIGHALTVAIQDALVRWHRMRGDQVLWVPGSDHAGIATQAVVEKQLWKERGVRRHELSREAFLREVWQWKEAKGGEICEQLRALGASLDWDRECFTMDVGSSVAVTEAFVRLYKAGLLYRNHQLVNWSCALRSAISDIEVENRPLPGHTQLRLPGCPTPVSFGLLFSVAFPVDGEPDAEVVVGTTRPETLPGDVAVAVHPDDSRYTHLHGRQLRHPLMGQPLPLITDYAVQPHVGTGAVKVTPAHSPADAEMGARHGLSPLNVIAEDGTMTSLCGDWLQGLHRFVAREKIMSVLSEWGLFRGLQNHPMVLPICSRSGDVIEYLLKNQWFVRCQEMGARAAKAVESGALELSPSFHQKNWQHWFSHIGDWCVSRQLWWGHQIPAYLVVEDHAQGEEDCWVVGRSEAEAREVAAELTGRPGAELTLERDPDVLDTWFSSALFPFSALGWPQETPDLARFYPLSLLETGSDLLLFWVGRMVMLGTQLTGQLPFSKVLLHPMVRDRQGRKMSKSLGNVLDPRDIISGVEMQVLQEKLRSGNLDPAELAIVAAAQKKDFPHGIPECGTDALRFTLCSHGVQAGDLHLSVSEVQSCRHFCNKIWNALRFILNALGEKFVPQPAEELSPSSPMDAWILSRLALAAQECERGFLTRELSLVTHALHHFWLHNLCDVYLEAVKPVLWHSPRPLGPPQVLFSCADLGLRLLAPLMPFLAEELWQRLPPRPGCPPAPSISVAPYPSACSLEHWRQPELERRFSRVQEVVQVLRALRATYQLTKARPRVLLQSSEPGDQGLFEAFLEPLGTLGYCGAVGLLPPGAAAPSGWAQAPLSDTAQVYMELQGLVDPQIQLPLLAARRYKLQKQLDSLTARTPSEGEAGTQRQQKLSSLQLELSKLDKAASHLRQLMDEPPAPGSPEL
UniProt Q9C0B0: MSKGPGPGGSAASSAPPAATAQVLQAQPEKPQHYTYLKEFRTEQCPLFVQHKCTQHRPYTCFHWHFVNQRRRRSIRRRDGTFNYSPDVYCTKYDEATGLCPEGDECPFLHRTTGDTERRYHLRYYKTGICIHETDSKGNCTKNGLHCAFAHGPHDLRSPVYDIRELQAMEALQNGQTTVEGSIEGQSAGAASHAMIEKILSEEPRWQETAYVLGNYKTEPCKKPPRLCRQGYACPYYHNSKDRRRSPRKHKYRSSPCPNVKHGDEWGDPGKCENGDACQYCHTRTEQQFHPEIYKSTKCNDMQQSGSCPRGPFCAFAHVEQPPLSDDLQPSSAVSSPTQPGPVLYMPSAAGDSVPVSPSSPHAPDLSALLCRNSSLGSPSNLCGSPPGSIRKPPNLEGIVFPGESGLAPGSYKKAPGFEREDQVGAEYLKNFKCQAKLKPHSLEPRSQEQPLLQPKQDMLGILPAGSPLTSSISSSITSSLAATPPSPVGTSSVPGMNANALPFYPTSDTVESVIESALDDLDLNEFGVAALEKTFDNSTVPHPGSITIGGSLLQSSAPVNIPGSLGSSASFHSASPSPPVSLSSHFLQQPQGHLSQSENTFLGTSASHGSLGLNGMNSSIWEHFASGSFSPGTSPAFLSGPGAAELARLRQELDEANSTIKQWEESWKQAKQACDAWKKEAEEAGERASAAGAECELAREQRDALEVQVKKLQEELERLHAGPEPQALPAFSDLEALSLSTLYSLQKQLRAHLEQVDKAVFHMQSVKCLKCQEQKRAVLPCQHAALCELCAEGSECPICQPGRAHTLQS
UniProt P40818: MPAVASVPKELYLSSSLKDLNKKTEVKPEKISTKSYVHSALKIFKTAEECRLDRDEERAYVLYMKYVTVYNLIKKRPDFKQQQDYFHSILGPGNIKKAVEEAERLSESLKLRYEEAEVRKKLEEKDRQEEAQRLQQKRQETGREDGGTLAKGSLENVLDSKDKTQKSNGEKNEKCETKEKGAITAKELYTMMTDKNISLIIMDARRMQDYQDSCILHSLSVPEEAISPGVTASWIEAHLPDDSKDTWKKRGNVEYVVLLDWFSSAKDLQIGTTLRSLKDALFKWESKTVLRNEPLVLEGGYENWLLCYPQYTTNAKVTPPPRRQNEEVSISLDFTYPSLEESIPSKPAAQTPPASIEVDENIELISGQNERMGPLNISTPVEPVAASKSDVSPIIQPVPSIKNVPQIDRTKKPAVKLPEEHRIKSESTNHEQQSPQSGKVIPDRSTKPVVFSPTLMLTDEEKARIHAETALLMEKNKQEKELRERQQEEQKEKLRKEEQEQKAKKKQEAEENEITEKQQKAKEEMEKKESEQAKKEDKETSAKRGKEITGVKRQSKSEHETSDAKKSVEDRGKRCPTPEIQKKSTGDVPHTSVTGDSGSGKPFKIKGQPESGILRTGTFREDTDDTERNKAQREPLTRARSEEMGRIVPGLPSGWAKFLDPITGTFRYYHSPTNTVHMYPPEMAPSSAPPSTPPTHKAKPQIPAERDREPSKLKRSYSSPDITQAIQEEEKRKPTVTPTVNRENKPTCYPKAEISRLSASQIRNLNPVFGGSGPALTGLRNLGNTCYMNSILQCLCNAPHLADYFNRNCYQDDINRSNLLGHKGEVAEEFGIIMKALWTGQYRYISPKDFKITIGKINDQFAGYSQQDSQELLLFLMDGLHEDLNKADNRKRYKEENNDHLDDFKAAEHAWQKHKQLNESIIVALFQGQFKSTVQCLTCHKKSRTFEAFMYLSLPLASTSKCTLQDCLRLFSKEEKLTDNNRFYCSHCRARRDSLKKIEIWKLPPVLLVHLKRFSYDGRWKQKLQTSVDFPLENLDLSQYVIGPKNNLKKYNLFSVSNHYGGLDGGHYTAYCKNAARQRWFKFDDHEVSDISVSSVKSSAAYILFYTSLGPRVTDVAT
UniProt Q6IBS0: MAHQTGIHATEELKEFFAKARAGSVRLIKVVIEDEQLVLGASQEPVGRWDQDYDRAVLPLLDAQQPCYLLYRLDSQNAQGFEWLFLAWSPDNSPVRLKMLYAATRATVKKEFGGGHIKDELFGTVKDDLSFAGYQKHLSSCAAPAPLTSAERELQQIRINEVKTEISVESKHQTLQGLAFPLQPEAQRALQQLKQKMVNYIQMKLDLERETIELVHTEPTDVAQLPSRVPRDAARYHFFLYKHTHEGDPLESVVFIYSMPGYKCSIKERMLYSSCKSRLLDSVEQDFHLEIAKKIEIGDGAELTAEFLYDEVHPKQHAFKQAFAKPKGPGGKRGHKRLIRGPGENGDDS
UniProt Q86VN1: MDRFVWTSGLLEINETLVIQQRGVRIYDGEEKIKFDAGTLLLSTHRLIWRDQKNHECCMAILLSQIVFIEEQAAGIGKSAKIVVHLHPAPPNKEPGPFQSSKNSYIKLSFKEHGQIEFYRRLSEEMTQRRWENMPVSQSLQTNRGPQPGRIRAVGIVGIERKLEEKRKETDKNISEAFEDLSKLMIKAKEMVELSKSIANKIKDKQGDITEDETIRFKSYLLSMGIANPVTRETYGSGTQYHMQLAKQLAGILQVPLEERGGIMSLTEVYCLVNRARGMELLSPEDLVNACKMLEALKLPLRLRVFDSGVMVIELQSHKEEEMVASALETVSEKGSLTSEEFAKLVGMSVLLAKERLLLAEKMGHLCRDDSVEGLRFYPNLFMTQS
UniProt P61088: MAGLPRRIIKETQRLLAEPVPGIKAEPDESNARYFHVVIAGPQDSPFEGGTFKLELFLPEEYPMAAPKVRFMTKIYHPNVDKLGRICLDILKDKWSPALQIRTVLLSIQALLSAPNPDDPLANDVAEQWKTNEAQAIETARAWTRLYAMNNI
UniProt Q969T9: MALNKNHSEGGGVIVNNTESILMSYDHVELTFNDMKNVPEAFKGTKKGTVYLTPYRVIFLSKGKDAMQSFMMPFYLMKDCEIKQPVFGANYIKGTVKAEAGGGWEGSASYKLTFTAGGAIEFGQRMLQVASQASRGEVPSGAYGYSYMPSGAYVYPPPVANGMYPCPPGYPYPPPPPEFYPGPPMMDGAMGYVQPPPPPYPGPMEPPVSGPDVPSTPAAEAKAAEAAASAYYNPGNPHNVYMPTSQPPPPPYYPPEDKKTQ
UniProt P68371, whole entry: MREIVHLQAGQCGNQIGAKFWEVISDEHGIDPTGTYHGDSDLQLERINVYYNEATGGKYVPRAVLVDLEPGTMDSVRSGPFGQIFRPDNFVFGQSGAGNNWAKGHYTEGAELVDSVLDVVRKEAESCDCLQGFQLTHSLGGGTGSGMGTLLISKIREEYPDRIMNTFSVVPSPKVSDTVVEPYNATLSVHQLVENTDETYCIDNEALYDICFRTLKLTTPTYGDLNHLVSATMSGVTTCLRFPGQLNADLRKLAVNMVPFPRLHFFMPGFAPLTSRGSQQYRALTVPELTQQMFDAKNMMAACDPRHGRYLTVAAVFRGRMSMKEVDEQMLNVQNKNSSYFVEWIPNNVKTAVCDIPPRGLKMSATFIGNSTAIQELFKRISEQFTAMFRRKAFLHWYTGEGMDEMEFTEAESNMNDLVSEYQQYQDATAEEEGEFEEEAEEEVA
UniProt Q9NP79: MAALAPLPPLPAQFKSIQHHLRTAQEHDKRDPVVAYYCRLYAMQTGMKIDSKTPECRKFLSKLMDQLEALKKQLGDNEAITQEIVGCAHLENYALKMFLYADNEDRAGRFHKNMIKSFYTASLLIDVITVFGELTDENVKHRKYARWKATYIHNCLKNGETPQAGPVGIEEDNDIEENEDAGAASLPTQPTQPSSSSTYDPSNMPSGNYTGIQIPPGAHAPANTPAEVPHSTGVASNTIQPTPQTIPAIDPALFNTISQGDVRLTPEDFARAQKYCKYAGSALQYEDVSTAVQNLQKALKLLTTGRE
UniProt Q8NB14: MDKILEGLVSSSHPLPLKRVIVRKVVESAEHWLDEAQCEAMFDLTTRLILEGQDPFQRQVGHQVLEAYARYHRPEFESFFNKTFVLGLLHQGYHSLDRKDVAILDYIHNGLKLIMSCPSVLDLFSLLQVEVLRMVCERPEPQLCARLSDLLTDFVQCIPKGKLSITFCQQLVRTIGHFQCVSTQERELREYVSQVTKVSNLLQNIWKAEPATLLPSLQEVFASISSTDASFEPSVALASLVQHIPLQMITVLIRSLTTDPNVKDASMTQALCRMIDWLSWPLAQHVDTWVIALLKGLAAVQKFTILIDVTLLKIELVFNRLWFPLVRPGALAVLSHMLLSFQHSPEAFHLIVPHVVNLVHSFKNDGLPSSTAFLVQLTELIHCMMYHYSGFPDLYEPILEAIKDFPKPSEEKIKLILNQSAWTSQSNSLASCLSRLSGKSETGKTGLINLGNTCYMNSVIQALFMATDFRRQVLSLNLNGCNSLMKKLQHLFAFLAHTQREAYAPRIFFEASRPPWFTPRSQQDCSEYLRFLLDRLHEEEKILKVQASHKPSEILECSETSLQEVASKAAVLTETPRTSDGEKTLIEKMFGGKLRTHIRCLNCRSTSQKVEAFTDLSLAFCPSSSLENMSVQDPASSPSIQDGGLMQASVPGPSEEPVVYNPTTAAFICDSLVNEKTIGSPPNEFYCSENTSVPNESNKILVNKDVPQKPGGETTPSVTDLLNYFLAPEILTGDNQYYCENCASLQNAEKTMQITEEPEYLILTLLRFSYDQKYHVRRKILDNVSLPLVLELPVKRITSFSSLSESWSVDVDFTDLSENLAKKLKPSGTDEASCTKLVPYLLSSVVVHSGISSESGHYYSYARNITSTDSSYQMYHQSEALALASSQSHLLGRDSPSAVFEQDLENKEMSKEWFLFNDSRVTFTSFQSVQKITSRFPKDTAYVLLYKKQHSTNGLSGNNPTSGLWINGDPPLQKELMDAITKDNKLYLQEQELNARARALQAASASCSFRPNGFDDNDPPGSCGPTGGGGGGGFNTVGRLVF
UniProt Q96AX1: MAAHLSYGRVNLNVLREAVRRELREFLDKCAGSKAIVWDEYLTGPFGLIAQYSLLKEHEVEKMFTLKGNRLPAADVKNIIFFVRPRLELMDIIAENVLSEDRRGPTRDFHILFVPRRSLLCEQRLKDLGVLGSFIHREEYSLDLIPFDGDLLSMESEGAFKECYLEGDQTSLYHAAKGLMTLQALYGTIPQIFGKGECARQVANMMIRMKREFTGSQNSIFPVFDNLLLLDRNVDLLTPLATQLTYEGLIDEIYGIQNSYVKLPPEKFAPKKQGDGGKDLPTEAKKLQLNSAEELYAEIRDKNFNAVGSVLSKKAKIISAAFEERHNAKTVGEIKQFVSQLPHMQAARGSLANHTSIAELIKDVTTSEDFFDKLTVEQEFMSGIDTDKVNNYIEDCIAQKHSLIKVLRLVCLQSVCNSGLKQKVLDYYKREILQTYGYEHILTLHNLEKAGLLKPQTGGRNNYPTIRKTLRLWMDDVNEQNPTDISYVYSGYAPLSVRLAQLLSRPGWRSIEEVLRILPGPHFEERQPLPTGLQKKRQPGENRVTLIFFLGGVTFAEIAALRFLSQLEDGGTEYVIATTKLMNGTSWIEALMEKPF

Compound: COc1ccc(Cn2ccc3cc(C)c(C(=O)NO)cc32)cc1
Experiment: dose-dependent thermal stabilisation call (2D-TPP, DLPTP, 10% FDR) (binary (1 = stabilised)); higher = stabilised by the compound
Conditions: system: HL-60 intact cells; concentration range 0.04-10 µM
Protocol: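 2D thermal proteome profiling in intact HL-60 cells treated with BRD-3811 (0, 0.04, 0.29, 2, 10 uM) for 90 min at 37 C, then heated 3 min at one of 12 temperatures (42-63.9 C). Soluble protein was quantified by TMT10 MS. The value is the DLPTP call of the paper: dose-dependent thermal stabilisation over all temperatures at 10% FDR (F-test of a dose-response against a flat model); one experiment, one call per tested protein.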

Row | Target | dose-dependent thermal stabilisation call
1 | VARS2 (UniProt Q5ST30) | inactive: 0
2 | UTP15 (UniProt Q8TED0) | inactive: 0
3 | UBE2O (UniProt Q9C0C9) | inactive: 0
4 | UNK (UniProt Q9C0B0) | inactive: 0
5 | VPS13D (UniProt Q5THJ4) | inactive: 0
6 | USP25 (UniProt Q9UHP3) | inactive: 0
7 | VAPA (UniProt Q9P0L0) | inactive: 0
8 | VBP1 (UniProt P61758) | inactive: 0
9 | USP8 (UniProt P40818) | inactive: 0
10 | USP22 (UniProt Q9UPT9) | inactive: 0
11 | UPRT (UniProt Q96BW1) | inactive: 0
12 | USP20 (UniProt Q9Y2K6) | inactive: 0
13 | TWF2 (UniProt Q6IBS0) | inactive: 0
14 | VPS36 (UniProt Q86VN1) | inactive: 0
15 | UBE2N (UniProt P61088) | inactive: 0
16 | USP11 (UniProt P51784) | inactive: 0
17 | WBP2 (UniProt Q969T9) | inactive: 0
18 | USP28 (UniProt Q96RU2) | inactive: 0
19 | TUBB2C (UniProt P68371) | inactive: 0
20 | UBE2G2 (UniProt P60604) | inactive: 0
21 | VTA1 (UniProt Q9NP79) | inactive: 0
22 | UQCC (UniProt Q9NVA1) | inactive: 0
23 | USP38 (UniProt Q8NB14) | inactive: 0
24 | VPS33A (UniProt Q96AX1) | inactive: 0
25 | VCPIP1 (UniProt Q96JH7) | inactive: 0
26 | UQCRFS1 (UniProt P47985) | inactive: 0
27 | USP5 (UniProt P45974) | inactive: 0

A second format for some results above.

| Row | Target | dose-dependent thermal stabilisation call |
| --- | --- | --- |
| 11 | UPRT (UniProt Q96BW1) | inactive: 0 |
| 14 | VPS36 (UniProt Q86VN1) | inactive: 0 |
| 16 | USP11 (UniProt P51784) | inactive: 0 |
| 22 | UQCC (UniProt Q9NVA1) | inactive: 0 |
| 23 | USP38 (UniProt Q8NB14) | inactive: 0 |
| 25 | VCPIP1 (UniProt Q96JH7) | inactive: 0 |
| 27 | USP5 (UniProt P45974) | inactive: 0 |
